Drawing on PubChem BioAssay AID2685 (National Center for Advancing Translational Sciences (NCATS), 2010), this text covers cell number change and AC50 for 17 molecules.

Structures are written as SMILES. The list shows a part of the results. These are further read-outs of the screen, such as a control signal, another cell line or another target. No call is given for them. Most of these compounds were active or inconclusive in the main read-out, so they are no random draw. Potencies come from curve fits of mixed quality, noted in brackets.

A short description of this test: qHTS Assay for Lipid Storage Modulators in Drosophila S3 Cells.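 For cell number change: cells counted by Cell Tracker Red CMTPX staining in the red channel.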 The settings on record: BODIPY lipid droplet fluorescence, 18-24 h; for cell number change: measured here: cell count max response, cells fed with added oleic acid. Put shortly: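 Drosophila S3 cells got compounds at several concentrations plus oleic acid (400 uM solution). Laser-scanning cytometry with 488 nm excitation read lipid droplets at 500-530 nm and cells at 575-640 nm. Percent activity was relative to 20 uM Triacsin C.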
(In general: qHTS replaces the single test concentration by a dilution series.)

[1] abbreviates: measured here: lipid fluorescence (Fed channel) AC50, cells fed with added oleic acid.
Setting [2] is: measured here: cell number channel AC50, cells fed with added oleic acid.

The AC50 is the concentration giving half of the maximal activity seen. Low readings indicate greater potency, high ones weaker potency. Regarding `CN(C)CCCN(C(=O)c1ccc(S(=O)(=O)N2CCc3ccccc3C2)cc1)c1nc2c(F)cccc2s1`, the cell number change was found to be 40.3%. The AC50 under setting [1] was 501 nM [rising, single point].
In the case of `CCOc1ccccc1CNC(=O)Cn1ccc2cc(S(=O)(=O)N3CCCCCC3)ccc21`, the cell number change came to 4.58%. Moreover, the AC50 under setting [1] is 29100 nM [rising, single point].
`Cc1nnc(NC(=O)C2=COCCO2)s1`: the cell number change was -11.2%. Further, under setting [2], the AC50 was 1640 nM [falling, partial curve].
Take `COc1cc(CCC(=O)Nc2ccc(S(=O)(=O)N3CCCC3)cc2)cc(OC)c1OC`: the cell number change was -16%. For the same molecule, the AC50 under setting [1] was 651 nM [falling, single point].
As for `CCN(CC)CCNC(=O)c1ccc(NC2=NC3CS(=O)(=O)CC3S2)cc1` (configuration not stated), the cell number change was found to be 1.89%. In addition, the AC50 under setting [1] was 146 nM [rising, single point].
For `Cc1cc(Cl)c2oc(C(=O)NCC(C)(C)N3CCOCC3)c(C)c2c1`, the cell number change is -3.36%.
Regarding `COc1ccc(CCNC(=O)C2CC(c3ccccc3C(F)(F)F)=NO2)cc1` (configuration not stated), the cell number change was determined as 1.03%. The AC50 under setting [1] is 2060 nM [rising, partial curve, poor fit].
For `CC1(C)CC(=O)C=C(c2cccc(O)c2)C1`, the cell number change turned out to be 6.14%. For the same molecule, the AC50 under setting [2] was 6510 nM [falling, single point].
Turning to `COc1ccccc1N1CCN(C2CCN(C(=O)COc3cccc(C)c3)CC2)CC1`, the AC50 under setting [2] is 146 nM [falling, full curve, poor fit] and the half-maximal activity concentration (AC50) under setting [1] was 517 nM [falling, partial curve, poor fit].
As to `CCC(=O)NC(c1ccc(OC)cc1)c1c(O)ccc2ccccc12` (configuration not stated), the cell number change is -19.7%.
Turning to `CCOc1ccc(CCNc2ccc3nnc(-c4ccccc4)n3n2)cc1OCC`, the cell number change turned out to be 28.3%. In addition, the AC50 under setting [1] was 3660 nM [rising, partial curve].
On to `Cc1cc(C)c(C(=O)COC(=O)CCNS(=O)(=O)c2c(Cl)cccc2Cl)cc1C`, for which the cell number change was -16.5%. The half-maximal activity concentration (AC50) under setting [2] was 4.11 nM [falling, full curve, poor fit].
Regarding `COc1ccc(/C=N/NC(=O)CO/N=C(\C)c2cccs2)cc1`, the cell number change worked out at 1.27%. Besides, the half-maximal activity concentration (AC50) under setting [1] is 1030 nM [falling, full curve].
Regarding `C=CCN1C(=O)C(=O)N(Cc2nc3ccccc3s2)C1=O`, the cell number change was determined as 19.7%. For the same molecule, the AC50 under setting [1] is 398 nM [rising, single point].
Take `COc1nc(C)nc(NC(=O)NS(=O)(=O)c2ccc(C)cc2)n1`: the cell number change was -3.39%. The AC50 under setting [1] was 580 nM [falling, full curve, poor fit].
Turning to `O=C(OCCNc1nc(-c2ccccc2)nc2ccccc12)c1ccncc1`, the cell number change stood at 1.67%. The AC50 under setting [1] is 1300 nM [falling, full curve, poor fit].
Turning to `CCOP(=O)(OCC)C(NC(=O)Nc1c(C)cc(C)cc1C)c1ccccc1` (configuration not stated), the cell number change stood at 8.95%. Further, under setting [1], the half-maximal activity concentration (AC50) was 5.17 nM [rising, full curve, poor fit].
